# The whole screen tested about 1,300 compounds, of which fewer than 10 were called active. Another 9% or so got no clear call; they are omitted. Calls come from the whole dose curve; as a rule, active = well fitted curve in the direction sought with a large enough effect; inconclusive = small, poorly fitted or top-dose-only effect, or another doubt; inactive = no such curve, though single readings can be large or run the other way. This is one part of the list.
# Assay: qHTS for antagonists of the Thyroid Stimulation Hormone Receptor: Hit Validation in Parental Cell Line; note: 0% is about no effect
# Conditions: parental HEK293 cells lacking TSHR, counter-screen; series mostly up to 56.9 µM; activity change, negative = inhibition: at the top concentration
# Summary of the method: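 Counterscreen in untransfected parental HEK-EM 293 cells. Lysate cAMP displaces cAMP-d2 from cryptate-tagged anti-cAMP antibody, and homogeneous TR-FRET is read at 665 nm with 337 nm excitation after stimulation.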
row,SMILES,"activity change, negative = inhibition"
1,CC(=O)N/N=C\c1ccccc1OC/C=C/c1ccccc1,inactive: 3.08%
2,COC(=O)Cc1c(C)[nH]n(-c2cc(Cl)cc(Cl)c2)c1=O,inactive: 3.08%
3,COc1ccc(C(=O)Nc2cccc(NC(=O)c3cccs3)c2)cc1OC,inactive: -1.55%
4,Cc1ccc(S(=O)(=O)N2[C@@H](c3ccccc3F)C(C(=O)O)=CC[C@H]2c2ccc(Cl)c(Cl)c2)cc1,inactive: 3.18%
5,CCOC(=O)CCCCCC(=O)Nc1ccc2c(c1)CC(=O)N([C@H](C)CO)C[C@@H](C)[C@H](CN(C)Cc1ccc3c(c1)OCO3)O2,inactive: 4.03%
6,Cc1nc(SCC(=O)N2CCN(c3ccccc3)CC2)n[nH]1,inactive: 3.85%
7,CC(C)Cc1nc2oc3c(Cl)ncnc3c2c2c1CCC2,inactive: -8.8%
8,N#C/C(=N\Nc1ccc(S(=O)(=O)N2CCc3ccccc32)cc1)C(N)=S,inactive: -7.06%
9,CC(Sc1nnc(-c2cccs2)n1Cc1ccccc1)C(=O)NCc1ccc2c(c1)OCO2 (stereo not given),inactive: 5.08%
10,COc1ccc(C2=NS(=O)(=O)N(C)C(C(=O)Nc3ccc4c(c3)OCO4)=C2)cc1OC,inactive: -4.61%
11,Cc1ccccc1-c1cc(C(=O)Nc2sc(C(=O)OC(C)C)c(C)c2C#N)c2ccccc2n1,inactive: -8.24%
12,Nc1nc(SCC(=O)NCC2CCCO2)[nH]c(=O)c1NC(=O)c1ccc(F)c(F)c1 (stereo not given),inactive: -0.0353%
13,COc1ccc(CCNC(=O)c2ccc(-c3ccc([N+](=O)[O-])cc3Cl)o2)cc1OC,inactive: -13.2%
14,O=C(Nc1nnc(S(=O)(=O)N2CCCC2)s1)c1ccccc1F,inactive: 5.97%
15,CCN(C(=O)CSc1nnc(-c2ccccc2)o1)c1c(N)n(Cc2ccccc2)c(=O)[nH]c1=O,inactive: 0.435%
16,COc1ccc(/C=C/C(=O)c2ccc(NS(=O)(=O)c3ccc(C)cc3)cc2)cc1O,inactive: 3.83%
17,Cc1cc(C)c2oc(C(=O)Nc3ccc(S(=O)(=O)Nc4nccc(C)n4)cc3)cc(=O)c2c1,inactive: 3.87%
18,COc1cc(/C=N/OCC(=O)NC23CC4CC(CC(C4)C2)C3)ccc1OCc1ccccc1,inactive: 2.76%
19,Cc1cc(NC(=O)c2cc(-c3ccco3)on2)nn1Cc1ccc(Cl)cc1,inactive: -4.6%
20,Cc1ccc(-c2csc(NC(=O)c3ccc4c(=O)n5c(nc4c3)CCCCC5)n2)cc1,inactive: -9.13%
21,Cc1csc(NC(=O)c2cc3c(C)nn(Cc4ccccc4Cl)c3s2)n1,inactive: -4.48%
22,O=S(=O)(Nc1cccnc1)c1ccc(C2CCCCC2)cc1,inactive: 3.53%
23,O=C1S/C(=C\c2ccc(O)c([N+](=O)[O-])c2)C(=O)N1c1ccccc1Cl,inactive: -4.66%
24,COc1ccc(CNCc2cc(C)c(OC)cc2C)c(OC)c1,inactive: -6.88%

# Some of the entries above, reformatted:
row	SMILES	activity change, negative = inhibition
19	Cc1cc(NC(=O)c2cc(-c3ccco3)on2)nn1Cc1ccc(Cl)cc1	inactive: -4.6%
20	Cc1ccc(-c2csc(NC(=O)c3ccc4c(=O)n5c(nc4c3)CCCCC5)n2)cc1	inactive: -9.13%

# (more compounds)

row,SMILES,"activity change, negative = inhibition"
1,C=CCn1c(SCC(=O)c2cccs2)nc2sc(CC)cc2c1=O,inactive: -6.19%
2,CCOc1ccc(-n2c(SCC(=O)NC(C)CC)nc3n[nH]c(C)c3c2=N)cc1 (stereo not given),inactive: -1.4%
3,COc1ccc(OC)c(CCNC(=O)Cn2nc(C)c3c(C)n(-c4ccc(C)cc4)nc3c2=O)c1,inactive: -3.92%
4,COc1ccc2cc(/C=C3\SC(=S)NC3=O)c(N3CCOCC3)nc2c1,inactive: -5.33%
5,COc1ccc(CCNC(=O)c2cccc3c2C(=O)N(C2CCCCC2)C3)cc1OC,inactive: -2.45%
6,COC(=O)c1ccc(-c2noc(CN(C)CCC3CCCCO3)n2)cc1 (stereo not given),inactive: 2.57%
7,C=CCN1C(=O)C(Cc2ccc(OC)cc2)S/C1=N/N=C/c1ccco1 (stereo not given),inactive: 2.46%
8,C=C(C)c1cccc(C(C)(C)NC(=O)N(Cc2ccccc2)Cc2ccco2)c1,inactive: 4.82%
9,O=C(/C=C/c1ccc(OCCCF)cc1)Nc1ccnc(-c2ccncc2)n1,inactive: -2.51%
10,Cc1ccc(S(=O)(=O)Nc2ccccc2N2CCCCC2)cc1,inactive: -3.39%
11,O=c1[nH]c(-c2ccccc2F)nc2c1sc(=S)n2Cc1ccccc1,inactive: -3.17%
12,CCN(CC)c1ccc(C(=O)OCC(=O)N2CCCC2)cc1,inactive: 2.27%
13,CN(Cc1ccccc1)S(=O)(=O)c1ccc(OCC(=O)NCc2ccccn2)cc1,inactive: -4.22%
14,Cc1ccccc1N/C(SCc1ccc(Cl)cc1)=C(/C#N)C(=O)NCc1ccco1,inactive: -5.16%
15,COc1c(/C=C2\SC(=Nc3ccccc3Cl)NC2=O)cccc1[N+](=O)[O-],inactive: 7.28%
16,Cc1ccc(C(=O)N2c3ccccc3N(Cc3ccccc3)C(=O)C2(C)C)cc1,inactive: -7.28%
17,CCC(=O)OCCNc1cc(Sc2nccn2C)c2nonc2c1[N+](=O)[O-],inactive: -3.45%
18,C=CC(C)(C)c1c2occc2c(O)c2ccc(=O)oc12,inactive: -4.53%
19,CSC1=NSC2=NC(=O)/C(=C\c3coc4ccccc4c3=O)C(=N)N12,inactive: -3.37%
20,O=C1CCCC2=C1C(c1ccsc1)CC(=O)N2c1nnc(SCc2ccccc2)s1 (stereo not given),inactive: 2.54%
21,CSc1ccccc1OCc1cc(C(=O)NC2CCc3ccccc32)no1 (stereo not given),inactive: -0.98%
22,Cc1cc(Cl)c(S(=O)(=O)N2CCSCC2)cc1OCC(=O)NC1CCCCC1,inactive: 0.373%
23,O=C(Nc1ccc(S(=O)(=O)N2CCCCC2)cc1)c1ccc(CN2CCOCC2)cc1,inactive: -0.684%
24,O=C(Nc1nnc(S(=O)(=O)N2CCCCCC2)s1)c1cccc(Br)c1,inactive: -5.41%

row,SMILES,"activity change, negative = inhibition"
1,CSCC[C@H](NC(=O)c1ccc(Cl)c(S(=O)(=O)N2CCCC2)c1)c1nc2ccccc2[nH]1,inactive: 0.265%
2,COc1ccc(/C=C2\CC/C(=C\c3ccc(OC)c(OC)c3)C2=O)cc1OC,inactive: -9.79%
3,Cc1ccc(C)c(N2CCN(C(=O)CCCCCn3c(=S)[nH]c4ccc(N5CCOCC5)cc4c3=O)CC2)c1,inactive: -7.35%
4,O=S(=O)(/N=C(/Nc1cccc2ccccc12)c1ccccc1)c1cccs1,inactive: 0.846%
5,C(=N\N1CCN(Cc2cccc3ccccc23)CC1)/c1cccnc1,inactive: -5.86%
6,O=C(Nc1ccc([N+](=O)[O-])cc1Cl)c1cc(Cl)ccc1O,inactive: -8.6%
7,O=c1c2nncn2c2cccnc2n1CCNc1ncc(C(F)(F)F)cc1Cl,inactive: 3.82%
8,Cc1ccc(Sc2ncccc2NC(=O)c2ccccc2Cl)cc1,inactive: 3.7%
9,CC1CC(=O)N(c2ccc(C(C)C)cc2)C(=O)C1,inactive: 4.03%
10,COc1ccc(NC(=O)Cn2nnc(C(=O)NCc3cccs3)c2N)c(OC)c1,inactive: 4.02%
11,CCCCn1c(-c2csc3c2CCCC3)n[nH]c1=S,inactive: -0.133%
12,COC(=O)c1c(NC(NC(=O)CC(C)C)C(Cl)(Cl)Cl)sc2c1CCC2 (stereo not given),inactive: 2.42%
13,COC(=O)c1c(-c2ccc(SC)cc2)sc2ccccc12,inactive: 4.49%
14,Cc1cccc(NC(=O)CCN2CCN(C)CC2)c1,inactive: 4.85%
15,C=C(C)CNc1cc(S(=O)(=O)N2CCOCC2)ccc1Oc1ccccc1,inactive: -7.9%
16,Cc1cc(C(=O)CCl)c(C)n1CCc1ccccc1,inactive: -5.16%
17,CC1CCN(CCCNC(=O)CN2C(=O)CSc3ccc(S(=O)(=O)N4CCOCC4)cc32)CC1,inactive: 2.26%
18,O=C(Nc1ccn(Cc2ccccc2F)n1)c1ccc(COc2ccccc2Cl)cc1,inactive: -9.46%
19,COc1ccc(/C=C2/SC(=S)NC2=O)cc1OCc1ccccc1,inactive: -11.5%
20,CCc1ccc(NS(=O)(=O)c2cc3[nH]c(=O)c(=O)[nH]c3cc2C)cc1,inactive: 5.97%
21,CC(C)NC(=O)COc1coc(CN2CCN(c3ccccc3F)CC2)cc1=O,inactive: 0.894%
22,COc1ccccc1NS(=O)(=O)c1cccc(NC(=O)c2ccc3ccccc3n2)c1,inactive: -6.57%
23,CCOc1ccc(Nc2nc(Cc3nnc(SCC(=O)c4ccc(C)cc4)o3)cs2)cc1,inactive: 2.12%
24,CCOC(=O)c1ccc(NC(=O)c2nc(S(=O)(=O)Cc3ccccc3)ncc2Cl)cc1,inactive: 5.14%

# Four compounds already listed, arranged by number of heavy atoms, descending.
row,SMILES,"activity change, negative = inhibition"
4,Cc1ccc(S(=O)(=O)N2[C@@H](c3ccccc3F)C(C(=O)O)=CC[C@H]2c2ccc(Cl)c(Cl)c2)cc1,inactive: 3.18%
22,COc1ccccc1NS(=O)(=O)c1cccc(NC(=O)c2ccc3ccccc3n2)c1,inactive: -6.57%
7,C=CCN1C(=O)C(Cc2ccc(OC)cc2)S/C1=N/N=C/c1ccco1 (stereo not given),inactive: 2.46%
23,O=C1S/C(=C\c2ccc(O)c([N+](=O)[O-])c2)C(=O)N1c1ccccc1Cl,inactive: -4.66%

# Later entries

row,SMILES,"activity change, negative = inhibition"
1,C=CCNc1ncnc2ccc(Br)cc12,inactive: 2.74%
2,O=C1NC(=S)S/C1=C\c1cc2ccccc2nc1N1CCCCC1,inactive: 1.44%
3,Cn1c(CNC(=O)c2ccc(Cl)cc2)nnc1SCC(=O)NC1CCCC1,inactive: 1.09%
4,CCOC(=O)c1c(NC(NC(=O)C(C)C)C(Cl)(Cl)Cl)sc2c1CCC2 (stereo not given),inactive: 0.236%
5,CCOc1ccccc1NC(=O)C1(S(=O)(=O)c2ccc(Cl)cc2)CC1,inactive: 4.72%
6,COc1cc(OC)cc(-c2cc3cc4c(cc3cn2)OCO4)c1,inactive: -3.04%
7,Cc1ccccc1-n1sc2cc(F)ccc2c1=O,inactive: -7.14%
8,CCOC(=O)Cn1c(=NC(=O)CSC(C)=O)sc2ccccc21,inactive: -0.0178%
9,COc1ccccc1CNS(=O)(=O)c1ccc(-n2cccn2)cc1,inactive: 1.26%
10,CC(C)c1ccccc1OCCNC(=O)c1cccnc1,inactive: 1.83%
11,CCOC(=O)N1CCN(C(=O)c2ccc3c(c2)N=C(CC)c2cc(C)ccc2S3)CC1,inactive: 3.11%
12,CCN(CC)S(=O)(=O)c1cccc(NC(=O)CCSc2ccc(Cl)cc2)c1,inactive: -6.52%
13,O=C1C=C(c2ccc(Cl)c(C(F)(F)F)c2)C[C@@H](c2ccc(Cl)cc2)C1,inactive: 2.48%
14,CC(=O)c1ccc(S(=O)(=O)N2CCN(CCOc3ccc(Br)cc3)CC2)cc1,inactive: 1.93%
15,COCCNc1cnn(-c2ccccc2)c(=O)c1Cl,inactive: 2.15%
16,Clc1c(CSc2nc3ccccc3o2)nc2ccccn12,inactive: 3.19%
17,COC(=O)c1ccc(C2C(Oc3ccccc3C)C(=O)N2CCc2ccc(OC)c(OC)c2)cc1 (stereo not given),inactive: -4.95%
18,Nc1c(C(=O)NCc2ccc3c(c2)OCO3)nnn1CC(=O)Nc1ccc(Br)cc1,inactive: 1.25%
19,O=C(Nc1ccncc1)Nc1cc(Cl)ccc1Cl,inactive: -5.24%
20,C/C(=N/OCO/N=C(/C)c1ccc(F)cc1)c1ccc(F)cc1,inactive: 4.84%
21,C=CCN(c1ccccc1)S(=O)(=O)c1ccc2[nH]cc(C(=O)NCCOC)c(=O)c2c1,inactive: -2.5%
22,O=C(CN1C(=O)NC2(CCCCCC2)C1=O)N1CCC(Cc2ccccc2)CC1,inactive: 1.22%
23,COc1ccc(NC(=O)/C(Cl)=C(/Cl)S(=O)Cc2ccccc2Cl)cn1 (stereo not given),inactive: -8.16%
